Laboratory results taken from patent US20170304444A1 (Dana-Farber, published 2017).
No constants are given. Whether binding was seen depends on the method and setting. Some entries that bind do so weakly or less than the wild type.

By UniProt entry, the sequences of proteins in these tests, tags left out. Residues count along the entry.
UniProt Q9Y5U5, residues 26-241: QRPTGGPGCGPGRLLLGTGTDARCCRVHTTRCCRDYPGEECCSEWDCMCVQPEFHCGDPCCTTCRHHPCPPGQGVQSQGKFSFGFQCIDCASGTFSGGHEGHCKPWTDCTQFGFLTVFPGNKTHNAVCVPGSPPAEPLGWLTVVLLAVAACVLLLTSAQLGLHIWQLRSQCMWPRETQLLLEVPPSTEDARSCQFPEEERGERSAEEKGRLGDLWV

Target: glucocorticoid-induced tumor necrosis factor receptor (GITR) (human) (UniProt Q9Y5U5)
Experiment: flow cytometry on GITR-expressing 293T cells, FITC anti-human Fc detection

B1: mAb #17-60 (antibody, V domains shown)
VH: EVQLVESGAEVKKPGASVKVSCKTSGYTFTDHYIHWVRQAPGQGLEWMGWINPSSGGTEYAQKFQGRVTMTRDTPISTAYMDLSGLRSDDTAVYYCARETIGGWNALDVWGQGTLVTVSS
VL: QPVLTQPPSASGTPGQRVTISCSGSSSNIGINTVNWYQQLPRTPPKLLIYTNNQRPSGVPDRFSGSKSDTSASLAISGLQSEDEADYYCAAWDDTLNGPLFGGGTKVTVLG
  binding: binds
